Reference: PubChem BioAssay AID624297 (National Center for Advancing Translational Sciences (NCATS), 2012)
Screen size: about 340,000 compounds; about 6,200 (1.8%) were called active. The shares of active, inactive and inconclusive entries below differ from those in the screen. Calls come from the whole dose curve; as a rule, active = well fitted activation curve with a large enough effect; inconclusive = small, poorly fitted or top-dose-only effect; inactive = no such curve, though single readings can be large or run the other way. Where the call is inconclusive, the potency comes from a doubtful curve fit.
Potency is the fitted concentration of half-maximal effect.

Experiment: A quantitative high throughput screen for small molecules that induce DNA re-replication in SW480 colon adenocarcinoma cells. Note: nearly all actives have a fitted effect of over 55% in size.
Settings: Hoechst DNA content imaging, 48 h; series mostly up to 46.1 µM
Summary of the method: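 SW480 cells exposed to compounds for 48 hr at 37 C, 5% CO2, then Hoechst-stained 40 min. Nuclear DNA content imaged by fluorescence scanning (405 nm excitation, 500-530 nm emission); re-replication scored as increased high-intensity nuclei.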
In the case of O=C(NN=C1CCCC1)c1[nH]c2ccc(Cl)cc2c1-c1ccccc1, the Potency is reported as inconclusive: 29.1 µM [activator, single point].
For N#Cc1c(-c2ccc(Cl)cc2)ccnc1N1CCOCC1, the Potency was “inactive”.
For CCc1nc(SCC(=O)N2CCC(C)CC2)c2c(=O)n(C)c(=O)n(C)c2n1, the Potency was “inactive”.
In the case of Cc1ccc(Nc2cc(C(=O)NCCCN3CCOCC3)c3ccccc3n2)cc1C, the Potency is reported as inconclusive: 23.1 µM [activator, single point].
In the case of O=C(CNC(=O)c1ccccc1)N/N=C/c1ccc([N+](=O)[O-])o1, the Potency is reported as inconclusive: 18.4 µM [activator, partial curve, poor fit].
For Cc1ccc(C(=O)NNC(=S)NC(=O)c2ccc(Cl)cc2)cc1, the Potency was inconclusive: 20.6 µM [activator, single point].
For CCC(C(=O)NCc1ccco1)N(C(=O)CNS(=O)(=O)c1ccccc1)c1ccccc1C (stereo unspecified), the Potency was inconclusive: 29.1 µM [activator, partial curve, poor fit].
For Cc1cccc(-n2c(O)c(/C=N/NC(=O)c3ccccc3Cl)c3ccccc3c2=O)n1, the Potency was inconclusive: 29.1 µM [activator, single point].
With Cc1ccccc1-c1nc(CS(=O)(=O)CC(=O)NCCCN2CCOCC2)c(C)o1 the Potency was inconclusive: 20.6 µM [activator, single point].
For O=C1CCCC2=C1C(c1ccc(O)cc1)c1c(ccc3ccccc13)N2 (stereo unspecified), the Potency was inconclusive: 29.1 µM [activator, partial curve, poor fit].
In the case of COc1cc2c(cc1OC)CN(C(=O)c1cc(S(=O)(=O)N3CCOCC3)c(Cl)cc1Cl)CC2, the Potency is reported as inconclusive: 16.4 µM [activator, single point].
With CCCc1noc2c1/C(=N\O)CC(c1ccccc1)C2 (stereo unspecified) the Potency was “inactive”.
With CC(CC(=O)NCc1ccco1)S(=O)(=O)c1ccc2c(c1)CCN2C(=O)C1CC1 (stereo unspecified) the Potency was inconclusive: 16.4 µM [activator, partial curve, poor fit].
For Cn1nnnc1Sc1ncnc2scc(-c3cccc4ccccc34)c12, the Potency was “inactive”.
With Cc1noc(C)c1S(=O)(=O)N1CCC(C(=O)Nc2ccc(OC(F)(F)F)cc2)CC1 the Potency was “inactive”.
In the case of COc1ccccc1-c1ccc(/C=C2\C=CC(=O)O2)o1, the Potency is reported as inconclusive: 25.9 µM [activator, partial curve, poor fit].
In the case of COc1ccc(OCCCC(=O)Nc2cc(S(=O)(=O)N3CCCCC3)ccc2C)cc1, the Potency is reported as inconclusive: 0.731 µM [activator, partial curve, poor fit].
With CN(C)CC(C)(C)CNS(=O)(=O)CC12CCC(CC1=O)C2(C)C (stereo unspecified) the Potency was “inactive”.
With CCCc1nc2oc3c(NCCN(C)C)ncnc3c2c2c1CCCC2 the Potency was inconclusive: 16.4 µM [activator, single point].
In the case of CC1CN(CCc2ccccc2)c2nc3c(c(=O)n(CC(N)=O)c(=O)n3C)n2C1 (stereo unspecified), the Potency is reported as inconclusive: 1.46 µM [activator, full curve, poor fit].
For Cc1ccc(C(C(=O)NC2CCCC2)N(C(=O)c2csnn2)c2cccc(F)c2)o1 (stereo unspecified), the Potency was “inactive”.
For Cc1ccc(/C=C/C(=O)c2cc(Br)ccc2OC(=O)c2ccco2)cc1, the Potency was inconclusive: 2.59 µM [activator, full curve, poor fit].
In the case of CCC1C(=O)NCCN1C(=O)c1ccc2nc(Cc3cccc(Cl)c3)oc2c1 (stereo unspecified), the Potency is reported as inconclusive: 25.9 µM [activator, partial curve, poor fit].
In the case of OCCCNc1nc(-c2ccccc2)c2cc(Br)ccc2n1, the Potency is reported as inconclusive: 18.4 µM [activator, partial curve, poor fit].
With COc1cc(S(=O)(=O)N2CCC(c3nc4ccccc4s3)CC2)ccc1S(=O)(=O)N1CC(C)CC(C)C1 (stereo unspecified) the Potency was “inactive”.
In the case of C=CCC[C@@H](Cc1ccc(F)cc1)C(=O)OC[C@H](Cc1c[nH]c2ccccc12)NC(=O)[C@@H](CC=C)CC(=O)N(CCO)Cc1ccccc1, the Potency is reported as inconclusive: 29.1 µM [activator, single point].
With COc1ccc(Nc2nc3[nH]c(=O)cc(O)c3s2)cc1 the Potency was “inactive”.
For CCN(CC)c1ccc(/C=N/NC(=O)c2cccc(S(=O)(=O)Nc3ccccc3OC)c2)cc1, the Potency was “inactive”.
In the case of CSc1nsc2nc(=O)c(/C=C3\C(C)=Nc4ccc(C)cc43)c(N)n12, the Potency is reported as inconclusive: 29.1 µM [activator, single point].
With O=C(NNC(=O)c1ccccc1Br)c1ccncc1 the Potency was inconclusive: 29.1 µM [activator, single point].
For CCOC(=O)c1c2c3c(cccc3n(C)c1=O)C(=O)c1ccccc1-2, the Potency was “inactive”.
For Cc1ccc(/C=C/C(=O)OCC(=O)NCc2ccccc2)o1, the Potency was inconclusive: 29.1 µM [activator, single point].
With Cc1ccc(N=C2NC(=O)/C(=C/C=C/c3ccco3)S2)cc1C the Potency was inconclusive: 25.9 µM [activator, single point].
With CC(/C=C/c1ccccc1)=N\NC(=O)c1ccc2c(c1)OCCO2 the Potency was active: 18.4 µM.
For CCOc1ccc(-c2nc(CN(Cc3ccccc3)C[C@@H]3CCC(=O)N3)c(C)o2)cc1, the Potency was “inactive”.
For CCc1nc2sc(C(C)=O)c(N)c2c2c1CCCC2, the Potency was active: 14.6 µM.
For O=C(CCCn1c(SCc2cccc([N+](=O)[O-])c2)nc2ccccc2c1=O)NCC1CCCO1 (stereo unspecified), the Potency was inconclusive: 14.1 µM [activator, single point].
For CCOC(=O)C1=C(C)c2ccccc2OC1(CC)C(=O)OCC (stereo unspecified), the Potency was “inactive”.
In the case of O=C(CNC(c1ccccc1)c1ccccc1)Nc1ccccc1F, the Potency is reported as inconclusive: 29.1 µM [activator, single point].
In the case of Cc1ccc(C(=O)NCCc2cc3ccc(C)c(C)c3[nH]c2=O)cc1[N+](=O)[O-], the Potency is reported as inconclusive: 10.3 µM [activator, partial curve].
For Nn1c(SCC(=O)Nc2ccc(N3CCOCC3)cc2)nnc1-c1ccccc1F, the Potency was “inactive”.
With Cc1ccc(N(C(=O)CCCC(=O)Nc2ccccn2)C(C(=O)NC2CCCC2)c2ccc(O)cc2)cc1C (stereo unspecified) the Potency was inconclusive: 29.1 µM [activator, single point].
For CS(=O)(=O)c1ccc(Cl)c(NC(=O)COC(=O)Cc2c[nH]c3ccccc23)c1, the Potency was “inactive”.
For Cc1cccc(C)c1OCC(O)Cn1c2ccccc2c2ccccc21 (stereo unspecified), the Potency was inconclusive: 32.6 µM [activator, partial curve, poor fit].
In the case of NNc1ncnc2c1cnn2-c1ccccc1, the Potency is reported as inconclusive: 25.9 µM [activator, single point].
In the case of O=C(NCC1(N2CCCCC2)CCCCC1)c1ccc(NS(=O)(=O)c2ccc(F)cc2)cc1, the Potency is reported as inconclusive: 0.259 µM [activator, full curve, poor fit].
For Cc1c(NC(=O)Nc2cc(F)c(F)cc2Cl)c(=O)n(-c2ccccc2)n1C, the Potency was inconclusive: 2.59 µM [activator, partial curve, poor fit].
With C/C=C1\NC(=O)[C@H](CC(N)=O)N(C)C(=O)C([C@@H](C)O)NC(=O)C(CCCc2ccc(OC)cc2)NC(=O)[C@H](C(C)C)NC(=O)/C(=C\C)NC(=O)[C@H](O)[C@@H](C[C@@H](O)CCCCCCC)NC(=O)[C@H](C)NC(=O)CN(C)C(=O)[C@H](CCC(N)=O)NC1=O (stereo partly specified) the Potency was inconclusive: 23.1 µM [activator, single point].
For CCOc1[nH]n(-c2ccccc2)c(=O)c1C=NCc1ccncc1, the Potency was inconclusive: 6.51 µM [activator, single point].
In the case of COc1ccc2nc(N)sc2c1, the Potency is reported as “inactive”.
In the case of CCN(CC)S(=O)(=O)c1ccc(C(=O)OCC(=O)NCCN2C(=O)CSC2=O)cc1, the Potency is reported as “inactive”.
In the case of COc1ccc(S(=O)(=O)N2CCN(C(=O)NCc3ccc(C)cc3)CC2)cc1, the Potency is reported as inconclusive: 2.59 µM [activator, single point].
For CC(=O)n1c(Cl)c(NC(=O)CCl)c2ccccc21, the Potency was inconclusive: 18.4 µM [activator, single point].
For C(=N\Nc1ccc2nncn2n1)/c1ccccn1, the Potency was inconclusive: 29.1 µM [activator, partial curve, poor fit].
For Cc1ccc2cc(C#N)c(NCCCNC(=O)C3CCCO3)nc2c1 (stereo unspecified), the Potency was inconclusive: 25.9 µM [activator, partial curve, poor fit].
With Cc1ccccc1N=C/C=C1\N(C)c2ccccc2C1(C)C the Potency was inconclusive: 0.184 µM [activator, full curve, poor fit].
In the case of CCc1ccc(OCC(=O)NC(NC(=S)Nc2ccc(Cl)cc2)C(Cl)(Cl)Cl)cc1 (stereo unspecified), the Potency is reported as “inactive”.
With CN(C)C(=O)CN1C(=O)NC2(CCc3ccccc32)C1=O (stereo unspecified) the Potency was “inactive”.
For COc1cccc2c(SCC(=O)N/N=C/c3ccccc3)cc(C)nc12, the Potency was inconclusive: 29.1 µM [activator, partial curve, poor fit].
For COc1ccc(-c2cc(C(=O)NC(C)c3ccccn3)c3ccccc3n2)cc1OC (stereo unspecified), the Potency was “inactive”.
For O=C(N/N=C/c1ccc(F)cc1)c1sccc1OCc1ccc(F)cc1, the Potency was active: 9.2 µM.
For Cc1ccc(NC(=O)CN(C(=O)N2CCN(C)CC2)S(=O)(=O)c2ccc(C)cc2)cc1, the Potency was “inactive”.
With NC(=O)C1CCN(Cc2nc3cc(C(F)(F)F)ccc3c(=O)[nH]2)CC1 the Potency was “inactive”.
For O=c1c2cc(Br)ccc2nc(-c2cccc(Cl)c2)n1O, the Potency was inconclusive: 29.1 µM [activator, single point].
In the case of Cc1ccsc1/C=N/NC(=O)CNC(=O)c1ccc(S(=O)(=O)N(C)C)cc1, the Potency is reported as inconclusive: 0.259 µM [activator, full curve, poor fit].
In the case of CC1(C)CC(=O)C2=C(C1)NC(SCC(=O)Nc1ccccc1)=C(C#N)C2c1ccco1 (stereo unspecified), the Potency is reported as inconclusive: 20.6 µM [activator, single point].
